In paper doi:10.1101/2022.06.21.497003 one finds binding data, which are given here for four molecules.

For the experiment, the target named is T1, 3HA-DAR3 (Arabidopsis thaliana) (UniProt Q9LVR6).
T1 sequence: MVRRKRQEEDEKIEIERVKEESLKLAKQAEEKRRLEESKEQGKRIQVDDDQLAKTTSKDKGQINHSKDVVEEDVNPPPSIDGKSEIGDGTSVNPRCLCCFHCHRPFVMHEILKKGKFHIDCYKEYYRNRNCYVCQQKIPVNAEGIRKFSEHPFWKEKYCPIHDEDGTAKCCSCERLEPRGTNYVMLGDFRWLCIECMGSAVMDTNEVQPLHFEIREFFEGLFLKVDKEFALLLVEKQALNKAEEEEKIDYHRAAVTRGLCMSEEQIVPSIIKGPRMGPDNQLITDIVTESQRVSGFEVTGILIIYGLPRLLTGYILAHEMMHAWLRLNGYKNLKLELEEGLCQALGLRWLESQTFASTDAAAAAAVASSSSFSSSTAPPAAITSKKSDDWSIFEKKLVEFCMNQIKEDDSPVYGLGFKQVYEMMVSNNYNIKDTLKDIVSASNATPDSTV
Briefly: co-IP.

These are yes or no findings as the source states them, for the method shown. In cells and extracts the contact can be indirect. Some entries that bind do so weakly or less than the wild type. Where a sequence is shown, tags or fusion partners need not be part of it.

B1: DAR2-3FLAG (protein, UniProt Q0WSN2 1-528)
chain: MDSSSSSSSSSPSSSYGVARVSHISNPCIFGEVGSSSSSTYRDKKWKLMKWVSKLFKSGSNGGGSGAHTNHHPPQFQEDENMVFPLPPSSLDDRSRGARDKEELDRSISLSLADNTKRPHGYGWSMDNNRDFPRPFHGGLNPSSFIPPYEPSYQYRRRQRICGGCNSDIGSGNYLGCMGTFFHPECFRCHSCGYAITEHEFSLSGTKPYHKLCFKELTHPKCEVCHHFIPTNDAGLIEYRCHPFWNQKYCPSHEYDKTARCCSCERLESWDVRYYTLEDGRSLCLECMETAITDTGECQPLYHAIRDYYEGMYMKLDQQIPMLLVQREALNDAIVGEKNGYHHMPETRGLCLSEEQTVTSVLRRPRLGAHRLVGMRTQPQRLTRKCEVTAILVLYGLPRLLTGAILAHELMHGWLRLNGFRNLNPEVEEGICQVLSYMWLESEVLSDPSTRNLPSTSSVATSSSSSFSNKKGGKSNVEKKLGEFFKHQIAHDASPAYGGGFRAANAAACKYGLRRTLDHIRLTGTFPL
In the case of B1, the binding entry is given as “binds”.

B2: DAR1-3FLAG (protein, UniProt Q8W4F0 1-553)
chain: MGWLTKILKGSSHKFSDGQCNGRYREDRNLEGPRYSAEGSDFDKEEIECAIALSLSEQEHVIPQDDKGKKIIEYKSETEEDDDDDEDEDEEYMRAQLEAAEEEERRVAQAQIEEEEKRRAEAQLEETEKLLAKARLEEEEMRRSKAQLEEDELLAKALQESMNVGSPPRYDPGNILQPYPFLIPSSHRICVGCQAEIGHGRFLSCMGGVWHPECFCCNACDKPIIDYEFSMSGNRPYHKLCYKEQHHPKCDVCHNFIPTNPAGLIEYRAHPFWMQKYCPSHERDGTPRCCSCERMEPKDTKYLILDDGRKLCLECLDSAIMDTHECQPLYLEIREFYEGLHMKVEQQIPMLLVERSALNEAMEGEKHGHHHLPETRGLCLSEEQTVTTVLRRPRIGAGYKLIDMITEPCRLIRRCEVTAILILYGLPRLLTGSILAHEMMHAWLRLNGYPNLRPEVEEGICQVLAHMWLESETYAGSTLVDIASSSSSAVVSASSKKGERSDFEKKLGEFFKHQIESDSSSAYGDGFRQGNQAVLKHGLRRTLDHIRLTGTFP
As for B2, the binding entry is “binds”.

B3: 3HA-DAR3 (protein, UniProt Q9LVR6 1-450)
chain: T1 sequence
Take B3: the binding result is listed as “binds”.

B4: DA1-3FLAG (protein, UniProt P0C7Q8 1-532)
chain: MGWFNKIFKGSNQRLRVGNNKHNHNVYYDNYPTASHDDEPSAADTDADNDEPHHTQEPSTSEDNTSNDQENEDIDRAIALSLLEENQEQTSISGKYSMPVDEDEQLARALQESMVVGNSPRHKSGSTYDNGNAYGAGDLYGNGHMYGGGNVYANGDIYYPRPITFQMDFRICAGCNMEIGHGRFLNCLNSLWHPECFRCYGCSQPISEYEFSTSGNYPFHKACYRERYHPKCDVCSHFIPTNHAGLIEYRAHPFWVQKYCPSHEHDATPRCCSCERMEPRNTRYVELNDGRKLCLECLDSAVMDTMQCQPLYLQIQNFYEGLNMKVEQEVPLLLVERQALNEAREGEKNGHYHMPETRGLCLSEEQTVSTVRKRSKHGTGKWAGNITEPYKLTRQCEVTAILILFGLPRLLTGSILAHEMMHAWMRLKGFRTLSQDVEEGICQVMAHKWLDAELAAGSTNSNAASSSSSSQGLKKGPRSQYERKLGEFFKHQIESDASPVYGDGFRAGRLAVHKYGLRKTLEHIQMTGRFPV
On to B4, for which the binding entry was “binds”.
